{
  "sequences": {"note": "Chains of the proteins cited; added tags and fusions are not shown. Lines headed by an entry give the natural chain unless they say otherwise; changes in a name come on top.", "UniProt Q13950": "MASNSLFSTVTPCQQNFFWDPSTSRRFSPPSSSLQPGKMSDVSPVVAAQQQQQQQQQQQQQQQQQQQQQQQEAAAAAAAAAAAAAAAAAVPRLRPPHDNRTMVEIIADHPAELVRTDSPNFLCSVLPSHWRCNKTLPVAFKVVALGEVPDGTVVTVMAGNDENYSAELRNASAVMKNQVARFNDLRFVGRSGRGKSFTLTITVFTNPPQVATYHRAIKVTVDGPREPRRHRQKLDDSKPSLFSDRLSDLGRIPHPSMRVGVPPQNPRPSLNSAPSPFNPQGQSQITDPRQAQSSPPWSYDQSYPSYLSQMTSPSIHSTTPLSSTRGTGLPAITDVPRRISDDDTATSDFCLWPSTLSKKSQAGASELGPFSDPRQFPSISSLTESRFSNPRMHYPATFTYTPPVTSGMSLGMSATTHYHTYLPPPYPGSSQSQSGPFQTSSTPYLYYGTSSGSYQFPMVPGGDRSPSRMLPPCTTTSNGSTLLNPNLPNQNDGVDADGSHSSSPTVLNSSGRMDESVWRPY", "UniProt P46937": "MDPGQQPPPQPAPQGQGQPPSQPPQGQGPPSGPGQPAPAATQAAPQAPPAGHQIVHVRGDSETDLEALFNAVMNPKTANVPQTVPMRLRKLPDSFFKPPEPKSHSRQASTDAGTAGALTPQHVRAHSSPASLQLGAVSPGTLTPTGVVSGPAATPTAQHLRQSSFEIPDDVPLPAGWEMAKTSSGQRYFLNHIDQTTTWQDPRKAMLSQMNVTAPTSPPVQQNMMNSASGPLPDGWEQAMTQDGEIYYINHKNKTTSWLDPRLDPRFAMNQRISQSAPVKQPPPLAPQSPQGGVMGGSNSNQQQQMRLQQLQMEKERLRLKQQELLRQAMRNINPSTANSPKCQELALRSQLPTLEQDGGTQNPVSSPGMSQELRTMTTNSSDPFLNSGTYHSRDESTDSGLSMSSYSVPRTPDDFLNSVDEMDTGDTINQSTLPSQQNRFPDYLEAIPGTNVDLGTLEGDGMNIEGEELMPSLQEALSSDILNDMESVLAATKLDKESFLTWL"},
  "source": "patent US8084434",
  "key": {"[1]": {"biological_target": "Flag.RUNX2 (Homo sapiens (Human)) (UniProt Q13950)", "assay": "reciprocal co-immunoprecipitation from nuclear lysates of transfected HEK293 cells, Western blot"}, "[2]": {"biological_target": "Flag.RUNX2 (Homo sapiens (Human)) (UniProt Q13950)", "assay": "co-immunoprecipitation of Flag.RUNX2 and HA.YAP"}},
  "note": "These are yes or no findings as the source states them, for the method shown. In cells and extracts the contact can be indirect. Some binding calls cover weakened binding; strength is not graded here.",
  "data": [
    {"substance": "HA.YAP (from UniProt P46937 1-504)", "values": [
      {"measurement": "binding", "setting": "[1]", "result": "binds"},
      {"measurement": "binding", "setting": "[2]", "result": "binds"}
    ]}
  ]
}
